Measured values: publication PMC10679541
These are yes or no findings as the source states them, for the method shown. Binding seen in cells or lysates may run through a third protein. Some entries that bind do so weakly or less than the wild type. Tags and fused reporters may be left off the sequences shown.

Protein sequences, listed by entry. Tags and fused reporters are not part of them.
UniProt P09405: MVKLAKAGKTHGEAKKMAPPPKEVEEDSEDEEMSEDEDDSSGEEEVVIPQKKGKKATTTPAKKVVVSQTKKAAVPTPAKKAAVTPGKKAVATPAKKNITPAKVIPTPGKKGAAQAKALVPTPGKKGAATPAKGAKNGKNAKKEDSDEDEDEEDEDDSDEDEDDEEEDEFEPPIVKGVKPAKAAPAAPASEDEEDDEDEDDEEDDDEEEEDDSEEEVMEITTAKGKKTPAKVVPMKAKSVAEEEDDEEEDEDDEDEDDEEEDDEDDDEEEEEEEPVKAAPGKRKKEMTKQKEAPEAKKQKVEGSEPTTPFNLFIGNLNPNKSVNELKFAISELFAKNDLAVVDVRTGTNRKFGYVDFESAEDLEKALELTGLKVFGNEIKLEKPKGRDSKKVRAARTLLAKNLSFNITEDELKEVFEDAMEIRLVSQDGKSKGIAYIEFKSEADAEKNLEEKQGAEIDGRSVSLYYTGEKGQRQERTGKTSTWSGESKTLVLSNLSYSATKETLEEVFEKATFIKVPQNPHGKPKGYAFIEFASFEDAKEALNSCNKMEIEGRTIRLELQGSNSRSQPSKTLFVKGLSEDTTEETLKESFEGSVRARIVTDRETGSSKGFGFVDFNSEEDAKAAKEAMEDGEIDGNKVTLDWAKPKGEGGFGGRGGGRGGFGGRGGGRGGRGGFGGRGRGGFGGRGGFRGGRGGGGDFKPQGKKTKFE

Biological target: T1, STAG1 (mouse (endogenous in mESCs)) (UniProt Q9D3E6)
T1 sequence: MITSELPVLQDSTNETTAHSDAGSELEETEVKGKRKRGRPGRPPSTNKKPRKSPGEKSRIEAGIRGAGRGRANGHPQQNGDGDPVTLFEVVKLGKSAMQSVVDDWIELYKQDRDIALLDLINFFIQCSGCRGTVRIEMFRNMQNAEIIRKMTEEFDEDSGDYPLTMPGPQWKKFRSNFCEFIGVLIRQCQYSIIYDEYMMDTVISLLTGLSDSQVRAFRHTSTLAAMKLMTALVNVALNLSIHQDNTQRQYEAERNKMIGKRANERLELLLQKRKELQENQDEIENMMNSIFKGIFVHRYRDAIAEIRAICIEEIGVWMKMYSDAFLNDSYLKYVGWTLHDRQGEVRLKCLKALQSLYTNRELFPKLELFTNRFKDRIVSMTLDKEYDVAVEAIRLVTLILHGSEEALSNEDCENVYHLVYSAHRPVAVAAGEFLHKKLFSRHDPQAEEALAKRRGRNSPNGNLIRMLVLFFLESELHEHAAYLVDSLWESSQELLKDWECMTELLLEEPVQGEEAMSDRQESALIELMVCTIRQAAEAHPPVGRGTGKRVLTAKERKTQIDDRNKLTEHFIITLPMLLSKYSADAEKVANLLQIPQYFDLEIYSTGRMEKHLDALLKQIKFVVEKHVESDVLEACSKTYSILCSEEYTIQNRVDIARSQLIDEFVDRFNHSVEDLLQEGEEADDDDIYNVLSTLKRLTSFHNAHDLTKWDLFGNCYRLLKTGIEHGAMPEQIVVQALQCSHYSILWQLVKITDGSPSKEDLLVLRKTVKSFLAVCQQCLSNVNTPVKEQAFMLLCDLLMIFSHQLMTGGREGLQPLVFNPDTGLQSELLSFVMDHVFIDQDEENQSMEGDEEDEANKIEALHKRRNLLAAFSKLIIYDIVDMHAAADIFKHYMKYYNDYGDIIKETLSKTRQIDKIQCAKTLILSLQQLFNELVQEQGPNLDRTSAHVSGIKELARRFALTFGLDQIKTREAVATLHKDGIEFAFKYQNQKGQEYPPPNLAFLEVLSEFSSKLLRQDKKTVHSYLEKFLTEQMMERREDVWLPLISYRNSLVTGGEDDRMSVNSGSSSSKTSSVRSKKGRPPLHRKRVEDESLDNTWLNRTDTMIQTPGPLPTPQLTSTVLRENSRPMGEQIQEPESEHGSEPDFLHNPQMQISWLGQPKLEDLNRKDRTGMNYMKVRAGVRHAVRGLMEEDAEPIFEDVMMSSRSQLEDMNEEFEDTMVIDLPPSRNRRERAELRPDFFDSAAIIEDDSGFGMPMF
Experiment: co-IP; immunoprecipitation of endogenous STAG1 (IgG as control) from chromatin of wild-type mESCs, western blot for STAG1, NCL and TRIM28

binding: binds
Substance: Nucleolin (from UniProt P09405 1-707)
